The source of these data is article PMC11274882.

Amino acid sequences for entries named in this document (tags omitted). Residues count along the entry.
UniProt Q9H6I2, 74-145: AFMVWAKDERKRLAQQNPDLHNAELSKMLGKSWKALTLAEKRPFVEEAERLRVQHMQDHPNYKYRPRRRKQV
UniProt O94993, 335-423: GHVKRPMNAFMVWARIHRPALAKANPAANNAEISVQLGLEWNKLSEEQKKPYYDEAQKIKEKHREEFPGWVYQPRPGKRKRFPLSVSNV

The target in one data set is SOX17 dN HMG-box (UniProt Q9H6I2). As to the kind of experiment: fluorescence polarisation. Particulars: some binding at highest concentrations, Kd not determined; FP: 50 mM Tris, 125 mM NaCl, pH 8.0, 80 nM RNA, temperature not stated; recombinant protein; residues 74-145; protein details: 6xHis; label: 3' FAM.
Another data set deals with SOX30 HMG-box (UniProt O94993). As to the kind of experiment: EMSA. To be noted: used as negative control; EMSA: equal volumes of 100 uM protein and ssDNA, room temperature 15 min, 1.5% agarose, TB buffer pH 7.4; recombinant protein; residues 335-423; protein details: 6xHis; single-stranded DNA.

For some assays here: Negatives hold for the conditions tested. For some assays here: At least one verdict was read from the data and is not stated in words by the source. For some assays here: Weaker means in comparison with the reference protein, sequence or condition of that experiment.

Take “GGUCGCCGUGGCCACUUCGAAAGGGGUGGAAAGGGCGACC [40-mer RNA, ES2 lncRNA hairpin Loop A]”: the binding result with SOX17 dN HMG-box was “binds more weakly”. For CCCCATCTTAGTATATTAGTTA [22-mer ssDNA], the binding result with SOX30 HMG-box is reported as “no binding”.
